Results reported in US6440935B1, “Inhibition of eucaryotic pathogens and neoplasms and stimulation of fibroblasts and lymphocytes with lytic peptides” (priority 1987, dated 2002).
Like-named read-outs stand apart in the source and are kept apart here. Not every detail of the peptide structures is certain; ends, links or a residue may be inferred. Residues, ends and D or L forms follow the SMILES beside them.

How the values were obtained:
[1] = test system: Trypanosoma cruzi trypomastigotes; assay: In vitro effect on T. cruzi trypomastigotes; assay type: cell-based
[2] = test system: T. cruzi intracellular amastigotes in Vero cells; assay: In vitro effect on T. cruzi intracellular amastigotes in Vero cells; assay type: cell-based, Trypanosoma cruzi; conditions: for Amastigotes/100 Vero Cells, Treated / Cells Infected %, Treated: 100 μM added at 24 hours
Protocol: Vero cells at 10^5 cells/ml in MEM-FBS were mixed with Trypanosoma Cruzi in the trypomastigote stage at 10^5 cells/ml in the same medium at a 1:1 ratio of Vero cells to trypomastigotes. The mixture of Vero cells and trypomastigotes was cultured at 37° C. in a 5% CO2 atmosphere in microscope slide chambers. At 24 hours, cecropin SB-37 was added to the chambers, except for a set of controls, at a final concentration of 100 μM. […]

[3] = test system: Simian kidney cells infected with measles virus; assay: Titration of virus in the presence of lytic peptides, measles; assay type: cell-based; conditions: 100 μM
[4] = test system: Simian kidney cells infected with parainfluenza virus; assay: Titration of virus in the presence of lytic peptides, parainfluenza; assay type: cell-based; conditions: 100 μM
[5] = test system: Simian kidney cells infected with herpes simplex II virus; assay: Titration of virus in the presence of lytic peptides, herpes simplex II; assay type: cell-based; conditions: 100 μM
human lymphocytes = assay type: cell-based
[6] = test system: 3T3 Mouse embryonic fibroblasts; assay: In vitro stimulation of fibroblast proliferation (3H-thymidine uptake); assay type: cell-based; conditions: 48 hours, no serum
Brucella abortus [7] = test system: Brucella abortus; design: species or system BALB/C mice; conditions: mouse, in vivo
Listeria monocytogenes = test system: Listeria monocytogenes; design: species or system mice; conditions: mouse, in vivo
Brucella abortus [8] = assay type: cell-based; conditions: 50 μM
eucaryotes = assay: Lytic activity, general statements of the description; conditions: general statement, no test described
[9] = test system: Plasmodium falciparum in human red blood cells; conditions: for 3H-Hypoxanthine Uptake / Infected RBC (%): 24 hours; for Infected RBC (%): 0.5 PPRC, control 8%
Saccharomyces cerevisiae = assay: Effect of lytic peptides on S. cerevisiae (plate count); conditions: 1 hour at 37° C., PBS pH 6.8, 500 at 0 μM
E. coli E/2/64 = assay: Lysozyme/cecropin synergism against E. coli (plate growth)
EL-4 lymphoma cells = assay: EL-4 cell viability by trypan blue exclusion; assay type: cell-based; conditions: from Table 6
Protocol: EL-4 lymphoma cells were suspended in RPMI 1640 at 5,000,000/ml with 500,000 cells per well. Various concentrations of cecropin SB-37 and Shiva 1 were added and the wells incubated at 37° C. in a 5% CO2 atmosphere for one hour. Viability was determined by microscopic observation for trypan blue exclusion.

mammary carcinoma = assay: In vivo effect on murine mammary carcinoma; design: species or system BALB/c mouse; conditions: 1.76 mg (88 mg/kg) daily, three days, injected directly into the carcinoma
Protocol: One BALB/c mouse was given daily injections of 1.76 mg (88 mg/kg) Shiva 1 in PBS for three consecutive days as described in the foregoing examples.

[10] = 48 hours post T. cruzi addition
[11] = 72 hours post T. cruzi addition
[12] = 96 hours post T. cruzi addition

CC[C@H](C)[C@H](NC(=O)CNC(=O)[C@H](CC(N)=O)NC(=O)[C@H](CCCNC(=N)N)NC(=O)[C@@H](NC(=O)[C@H](CC(N)=O)NC(=O)[C@H](CCCNC(=N)N)NC(=O)CNC(=O)[C@H](CCSC)NC(=O)[C@H](CCCCN)NC(=O)[C@H](CCC(=O)O)NC(=O)[C@@H](NC(=O)[C@H](CCCCN)NC(=O)[C@H](CCCCN)NC(=O)[C@H](Cc1ccccc1)NC(=O)[C@@H](NC(=O)[C@H](CCCCN)NC(=O)[C@H](Cc1c[nH]c2ccccc12)NC(=O)[C@H](CCCCN)NC(=O)[C@@H]1CCCN1C(=O)[C@@H](N)CCSC)C(C)C)[C@@H](C)CC)[C@@H](C)CC)C(=O)N[C@H](C(=O)N[C@@H](CCCCN)C(=O)N[C@@H](C)C(=O)NCC(=O)N1CCC[C@H]1C(=O)N[C@@H](C)C(=O)N[C@H](C(=O)N[C@@H](C)C(=O)N[C@H](C(=O)N[C@@H](CC(C)C)C(=O)NCC(=O)N[C@@H](CCC(=O)O)C(=O)N[C@@H](C)C(=O)N[C@@H](CCCCN)C(=O)N[C@@H](C)C(=O)N[C@@H](CC(C)C)C(=O)NCC(N)=O)C(C)C)[C@@H](C)CC)C(C)C [Cecropin SB-37] (H-MPKWKVFKKIEKMGRNIRNGIVKAGPAIAVLGEAKALG-NH2)
reduction in viability ([1]; 100 μM, one hour, compared to untreated trypomastigotes): 90%
level of parasitemia (counts of infected Vero cells) ([1]; trypomastigotes treated with 100 μM, then cultured 24 hours with Vero cells 1:1): significantly decreased level of parasitemia
Amastigotes/100 Vero Cells, Treated [2, 10]: 15
Cells Infected %, Treated [2, 10]: 14%
Amastigotes/100 Vero Cells, Treated [2, 11]: 5
Cells Infected %, Treated [2, 11]: 2.5%
Amastigotes/100 Vero Cells, Treated [2, 12]: 0
Cells Infected %, Treated [2, 12]: 0%
Number of Infected Cells, Measles ([3]; incubation period 1 day): 10^7
Number of Infected Cells, Measles ([3]; incubation period 2 days): 10^8
Number of Infected Cells, Measles ([3]; incubation period 3 days): 10^5
Number of Infected Cells, Parainfluenza ([4]; incubation period 1 day): 10^4
Number of Infected Cells, Parainfluenza ([4]; incubation period 4 days): 10^7
Number of Infected Cells, Herpes Simplex II ([5]; incubation period 1 day): <10^2
Number of Infected Cells, Herpes Simplex II ([5]; incubation period 2 days): <10^2
Number of Infected Cells, Herpes Simplex II ([5]; incubation period 3 days): <10^2
Number of Infected Cells, Herpes Simplex II ([5]; incubation period 4 days): <10^2
3H-thymidine uptake, greater relative to the second control (human lymphocytes): 70%
3H-Thymidine Uptake ([6]; 10 μM, and insulin 10 μg/ml): 60 10^3 cpm
3H-Thymidine Uptake ([6]; 10 μM, without insulin): 72 10^3 cpm
3H-Thymidine Uptake ([6]; 25 μM, and insulin 10 μg/ml): 65 10^3 cpm
3H-Thymidine Uptake ([6]; 25 μM, without insulin): 80 10^3 cpm
3H-Thymidine Uptake ([6]; 50 μM, and insulin 10 μg/ml): 110 10^3 cpm
3H-Thymidine Uptake ([6]; 50 μM, without insulin): 120 10^3 cpm
3H-Thymidine Uptake ([6]; 100 μM, and insulin 10 μg/ml): 30 10^3 cpm
3H-Thymidine Uptake ([6]; 100 μM, without insulin): 25 10^3 cpm
Concentration of Brucella abortus in spleen tissue (Brucella abortus [7]): 1.59 × 10^3 Number per gram of spleen
L. monocytogenes bacteria in spleen (average) (Listeria monocytogenes): less than five million
Results (growth of Brucella abortus) (Brucella abortus [8]): No growth
lytic activity compared with other lytic peptides (eucaryotes): about as lytically active as cecropin B
3H-Hypoxanthine Uptake ([9]; 1 μM, P. falciparum 0.0625 PPRC): 315 cpm
3H-Hypoxanthine Uptake ([9]; 1 μM, P. falciparum 0.125 PPRC): 470 cpm
3H-Hypoxanthine Uptake ([9]; 1 μM, P. falciparum 0.25 PPRC): 1053 cpm
3H-Hypoxanthine Uptake ([9]; 1 μM, P. falciparum 0.5 PPRC): 2350 cpm
3H-Hypoxanthine Uptake ([9]; 20 μM, P. falciparum 0.0625 PPRC): 295 cpm
3H-Hypoxanthine Uptake ([9]; 20 μM, P. falciparum 0.125 PPRC): 435 cpm
3H-Hypoxanthine Uptake ([9]; 20 μM, P. falciparum 0.25 PPRC): 946 cpm
3H-Hypoxanthine Uptake ([9]; 20 μM, P. falciparum 0.5 PPRC): 1925 cpm
Infected RBC (%) ([9]; 25 μM): 4%
Infected RBC (%) ([9]; 50 μM): 2.5%
Infected RBC (%) ([9]; 75 μM): 2%
Infected RBC (%) ([9]; 100 μM): 1%
3H-Hypoxanthine Uptake ([9]; 200 μM, P. falciparum 0.0625 PPRC): 20 cpm
3H-Hypoxanthine Uptake ([9]; 200 μM, P. falciparum 0.125 PPRC): 30 cpm
3H-Hypoxanthine Uptake ([9]; 200 μM, P. falciparum 0.25 PPRC): 40 cpm
3H-Hypoxanthine Uptake ([9]; 200 μM, P. falciparum 0.5 PPRC): 60 cpm
Plate Count (Thousands) (Saccharomyces cerevisiae; 5 μM): 400 Thousands
Plate Count (Thousands) (Saccharomyces cerevisiae; 50 μM): 75 Thousands
Plate Count (Thousands) (Saccharomyces cerevisiae; 750 μM): 0 Thousands
growth of E. coli (plate counts) (E. coli E/2/64; 5 μM, 90 minutes at room temperature): no growth of E. coli
growth of E. coli (E. coli E/2/64; one nanomolar and one micromolar): positive E. coli growth

CC[C@H](C)[C@H](NC(=O)CNC(=O)[C@H](CCC(N)=O)NC(=O)[C@H](CCCCN)NC(=O)[C@@H](NC(=O)[C@H](CCC(N)=O)NC(=O)[C@H](CCCCN)NC(=O)CNC(=O)[C@@H](NC(=O)[C@H](CCCNC(=N)N)NC(=O)[C@H](CC(=O)O)NC(=O)[C@@H](NC(=O)[C@H](CCCNC(=N)N)NC(=O)[C@H](CCCNC(=N)N)NC(=O)[C@H](Cc1ccccc1)NC(=O)[C@H](CC(C)C)NC(=O)[C@H](CCCNC(=N)N)NC(=O)[C@H](Cc1c[nH]c2ccccc12)NC(=O)[C@H](CCCNC(=N)N)NC(=O)[C@@H]1CCCN1C(=O)[C@@H](N)CCSC)[C@@H](C)CC)C(C)C)[C@@H](C)CC)C(=O)N[C@@H](CC(C)C)C(=O)N[C@@H](CCCNC(=N)N)C(=O)N[C@@H](C)C(=O)NCC(=O)N1CCC[C@H]1C(=O)N[C@@H](C)C(=O)N[C@H](C(=O)N[C@@H](C)C(=O)N[C@@H](CC(C)C)C(=O)N[C@H](C(=O)NCC(=O)N[C@@H](CC(=O)O)C(=O)N[C@@H](C)C(=O)N[C@@H](CCCNC(=N)N)C(=O)N[C@@H](C)C(=O)N[C@H](C(=O)NCC(N)=O)C(C)C)C(C)C)[C@@H](C)CC [Shiva 1] (H-MPRWRLFRRIDRVGKQIKQGILRAGPAIALVGDARAVG-NH2)
effectiveness against T. cruzi infection relative to cecropin SB-37 ([2]; from LD50): about ten times as effective as cecropin SB-37
effectiveness against EL-4 cells relative to cecropin SB-37 (EL-4 lymphoma cells): about twice as effective as cecropin SB-37
Number of Infected Cells, Measles ([3]; incubation period 1 day): >10^8
Number of Infected Cells, Measles ([3]; incubation period 2 days): >10^9
Number of Infected Cells, Measles ([3]; incubation period 3 days): >10^9
Number of Infected Cells, Measles ([3]; incubation period 4 days): >10^9
Number of Infected Cells, Parainfluenza ([4]; incubation period 1 day): 10^8
Number of Infected Cells, Parainfluenza ([4]; incubation period 2 days): >10^9
Number of Infected Cells, Parainfluenza ([4]; incubation period 3 days): 10^9
Number of Infected Cells, Parainfluenza ([4]; incubation period 4 days): >10^9
Number of Infected Cells, Herpes Simplex II ([5]; incubation period 1 day): 10^3
Number of Infected Cells, Herpes Simplex II ([5]; incubation period 2 days): 10^5
Number of Infected Cells, Herpes Simplex II ([5]; incubation period 3 days): 10^5
Number of Infected Cells, Herpes Simplex II ([5]; incubation period 4 days): 10^6
3H-thymidine uptake, greater relative to the second control (human lymphocytes): 80%
3H-Thymidine Uptake ([6]; 10 μM, and insulin 10 μg/ml): 0 10^3 cpm
3H-Thymidine Uptake ([6]; 10 μM, without insulin): 0 10^3 cpm
3H-Thymidine Uptake ([6]; 25 μM, and insulin 10 μg/ml): 0 10^3 cpm
3H-Thymidine Uptake ([6]; 25 μM, without insulin): 0 10^3 cpm
3H-Thymidine Uptake ([6]; 50 μM, and insulin 10 μg/ml): 0 10^3 cpm
3H-Thymidine Uptake ([6]; 50 μM, without insulin): 0 10^3 cpm
3H-Thymidine Uptake ([6]; 100 μM, and insulin 10 μg/ml): 2 10^3 cpm
3H-Thymidine Uptake ([6]; 100 μM, without insulin): 2 10^3 cpm
effect on the carcinoma at autopsy (mammary carcinoma): substantial cell death in the carcinoma
lytic activity compared with other lytic peptides (eucaryotes): generally much more lytically active than cecropin B
effectiveness against P. falciparum infection relative to cecropin SB-37 ([9]; from LD50): about twice as effective as cecropin SB-37
